The values that follow come from publication PMC3629710.

The chains behind the UniProt entries cited, without tags or fusion partners. Where a name states a change or a piece, a line headed by the entry shows the natural chain unless it says otherwise.
UniProt Q13905: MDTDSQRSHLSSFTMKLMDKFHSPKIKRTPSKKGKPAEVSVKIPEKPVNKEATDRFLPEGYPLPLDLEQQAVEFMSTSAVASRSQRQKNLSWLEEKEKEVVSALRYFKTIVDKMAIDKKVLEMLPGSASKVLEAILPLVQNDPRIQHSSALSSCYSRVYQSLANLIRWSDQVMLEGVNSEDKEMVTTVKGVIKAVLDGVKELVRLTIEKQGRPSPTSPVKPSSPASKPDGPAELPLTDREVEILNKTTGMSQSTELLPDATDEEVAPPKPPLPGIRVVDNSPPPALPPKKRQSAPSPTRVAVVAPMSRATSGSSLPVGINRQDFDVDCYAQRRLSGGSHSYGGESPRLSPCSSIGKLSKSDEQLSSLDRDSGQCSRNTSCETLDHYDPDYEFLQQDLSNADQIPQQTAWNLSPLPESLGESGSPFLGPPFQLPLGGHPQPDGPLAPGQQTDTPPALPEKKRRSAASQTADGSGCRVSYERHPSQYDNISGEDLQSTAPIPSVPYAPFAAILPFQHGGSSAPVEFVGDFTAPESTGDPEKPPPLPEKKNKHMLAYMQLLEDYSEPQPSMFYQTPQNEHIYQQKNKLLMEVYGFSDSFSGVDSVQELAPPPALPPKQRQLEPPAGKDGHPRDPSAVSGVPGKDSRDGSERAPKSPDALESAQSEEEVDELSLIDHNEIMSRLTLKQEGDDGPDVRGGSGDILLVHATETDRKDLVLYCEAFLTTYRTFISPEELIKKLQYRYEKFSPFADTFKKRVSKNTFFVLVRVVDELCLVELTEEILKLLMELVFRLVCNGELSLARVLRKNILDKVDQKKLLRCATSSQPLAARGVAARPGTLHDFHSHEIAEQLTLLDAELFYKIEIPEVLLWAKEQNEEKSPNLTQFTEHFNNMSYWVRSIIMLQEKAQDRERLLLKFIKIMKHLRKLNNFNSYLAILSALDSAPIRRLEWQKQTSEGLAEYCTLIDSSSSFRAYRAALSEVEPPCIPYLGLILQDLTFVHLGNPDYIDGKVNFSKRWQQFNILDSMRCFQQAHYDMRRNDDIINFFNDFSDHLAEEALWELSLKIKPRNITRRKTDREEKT

The target in the assay is C3G (endogenous, isoform not told in the immunoprecipitations) (human (endogenous in K562)) (UniProt Q13905). Briefly: co-IP; endogenous proteins immunoprecipitated from precleared K562 whole cell lysates (GammaBind G Sepharose), immunoblot; in Figures 5A and 6E cells cultured on 10 ug/ml fibronectin for 24 h; in Figure 6E shC3G or shCT clones. Background: In western blotting, separated proteins are transferred to a membrane and probed.

These are yes or no findings as the source states them, for the method shown. Binding seen in cells or lysates may run through a third protein. Binding can be weak; no strength is given.

B1: p130Cas (protein, UniProt P56945-1 1-870)
chain: MNHLNVLAKALYDNVAESPDELSFRKGDIMTVLEQDTQGLDGWWLCSLHGRQGIVPGNRLKILVGMYDKKPAGPGPGPPATPAQPQPGLHAPAPPASQYTPMLPNTYQPQPDSVYLVPTPSKAQQGLYQVPGPSPQFQSPPAKQTSTFSKQTPHHPFPSPATDLYQVPPGPGGPAQDIYQVPPSAGMGHDIYQVPPSMDTRSWEGTKPPAKVVVPTRVGQGYVYEAAQPEQDEYDIPRHLLAPGPQDIYDVPPVRGLLPSQYGQEVYDTPPMAVKGPNGRDPLLEVYDVPPSVEKGLPPSNHHAVYDVPPSVSKDVPDGPLLREETYDVPPAFAKAKPFDPARTPLVLAAPPPDSPPAEDVYDVPPPAPDLYDVPPGLRRPGPGTLYDVPRERVLPPEVADGGVVDSGVYAVPPPAEREAPAEGKRLSASSTGSTRSSQSASSLEVAGPGREPLELEVAVEALARLQQGVSATVAHLLDLAGSAGATGSWRSPSEPQEPLVQDLQAAVAAVQSAVHELLEFARSAVGNAAHTSDRALHAKLSRQLQKMEDVHQTLVAHGQALDAGRGGSGATLEDLDRLVACSRAVPEDAKQLASFLHGNASLLFRRTKATAPGPEGGGTLHPNPTDKTSSIQSRPLPSPPKFTSQDSPDGQYENSEGGWMEDYDYVHLQGKEEFEKTQKELLEKGSITRQGKSQLELQQLKQFERLEQEVSRPIDHDLANWTPAQPLAPGRTGGLGPSDRQLLLFYLEQCEANLTTLTNAVDAFFTAVATNQPPKIFVAHSKFVILSAHKLVFIGDTLSRQAKAADVRSQVTHYSNLLCDLLRGIVATTKAAALQYPSPSAAQDMVERVKELGHSTQQFRRVLGQLAAA
On to B1, for which the binding entry is on record as “binds”.
